Results from patent US20240294650A1.
No constants are given. Whether binding was seen depends on the method and setting. Some binding calls cover weakened binding; strength is not graded here. For some of these results: Sequences can lack the tags named with a protein.

T1: His tag-conjugated recombinant Gas6 (human) (UniProt Q14393)
T1 sequence (looked up): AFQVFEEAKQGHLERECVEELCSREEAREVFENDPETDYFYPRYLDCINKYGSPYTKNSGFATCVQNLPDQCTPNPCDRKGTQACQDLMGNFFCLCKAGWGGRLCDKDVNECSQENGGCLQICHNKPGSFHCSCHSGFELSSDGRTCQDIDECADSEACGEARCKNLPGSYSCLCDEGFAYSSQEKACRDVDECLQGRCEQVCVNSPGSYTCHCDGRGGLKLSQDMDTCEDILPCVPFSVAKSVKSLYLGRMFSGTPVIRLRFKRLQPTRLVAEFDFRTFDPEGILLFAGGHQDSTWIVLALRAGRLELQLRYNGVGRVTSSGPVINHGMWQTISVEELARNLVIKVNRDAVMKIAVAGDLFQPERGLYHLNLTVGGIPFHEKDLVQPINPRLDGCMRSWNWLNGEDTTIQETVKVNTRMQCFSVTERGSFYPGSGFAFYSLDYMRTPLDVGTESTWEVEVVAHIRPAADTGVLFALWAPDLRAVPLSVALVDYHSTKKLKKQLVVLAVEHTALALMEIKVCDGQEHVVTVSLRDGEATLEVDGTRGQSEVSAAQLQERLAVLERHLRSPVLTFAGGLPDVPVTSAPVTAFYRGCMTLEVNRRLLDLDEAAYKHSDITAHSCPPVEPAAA


Assays:
[1] = biological target: MerTK C-terminal ECD Half-and-half chimera (human); test: SPR, construct supernatant over immobilised Ab
[2] = biological target: MerTK N-terminal ECD Half-and-half chimera (human); test: SPR, construct supernatant over immobilised Ab
[3] = biological target: T1, His tag-conjugated recombinant Gas6 (human); test: ELISA, captured Ab, Gas6-His 1.5 ug/ml, no MerTK

binding [1]	binding [2]	binding [3]	Binder
binds			MTK-221 (antibody, human IgG1, V domains shown) VH: QVTLKESGPGMLQSSQTLSLTCSFSGFSLSTSGMGVSWIRQPSGKGLEWLAHIYWDDDKRYNTSLQSRLTISKDTSRNQVFLKITSVDTADTATYFCGRLGAYSAFPYYFDYWGQGTTLTVSS VL: DIQMTQSPSSLSASLGGKVTITCKASQDIHKHIAWYQHKPGKGPRLLIHYTSTLQPGIPSRFSGSGSGRDYSFSISNLEPEDLATYYCLQYDNLWTFGGGTKLEIK
binds			MTK-206 (antibody, human IgG1, V domains shown) VH: QVQLQQSGAELARPGASVKMSCKASGYTFTSYTMHWVKQRPGQGLEWIGYINPSSGYIKNSQKFKDKATLTADKSSSTAYMQLSSLTSEDSAVYYCARTVYGYYGSSPDYWGQGTTLTVSS VL: DIQMTQSPSSLSASLGERVSLTCRASQDIGSNLNWLQQEPDGTIKRLIYATSSLESGVPKRFSGSRSGSDYSLTISSLESEDFVDYYCLQYDSSPWTFGGGTKLEIK
binds			MTK-227 (antibody, human IgG1, V domains shown) VH: EVKLVESGGGLVQPGGSLSLSCAASGFTFTDNYMTWVRQPPGKALEWLGFSRNKANGYTTEYSASVKGRFTISRDSSQSILYLQMNALRAEDSGTYYCARFPPHYYAGGYFDVWGTGTTVTVSS VL: DIQMTQSPASLSASVGETVTITCRASENIYSYLAWYQQKQGKSPQLLVYNAKTLAEGVPSRFSGSGSGTQFSLKINSLQPADFGSYYCQHYYRTPPTFGGGTKLEIK
	binds	binds	MTK-231 (antibody, human IgG1, V domains shown) VH: DVQLQESGPGLVKPSQSLSLTCSVTGYSITSGYYWNWIRQFPGNKLEWMGYISYDGTYNYHPSLKNRISITRDTSKNQFFLTLNSVTTEDTATFYCTRGGGYWGQGTSVTVSS VL: DVVMTQTPLSLPVSLGDQASISCRSSQSLVHSDGNTYLHWYLQKPGQSPKLLIYKVSNRFSGVPDRFSGSGSGTDFTLKISRLEAEDLGIYFCSQTTHIPLTFGSGTKLEIK
binds			MTK-229 (antibody, human IgG1, V domains shown) VH: QVQLQQSGPELVKPGASVKISCKASGYEFSRSWMNWVKQRPGKGLEWIGRIYPGDGDTNYKGKLKGQATLTADKSSSTAYMQLSSLTFEDSAVYFCARGGGYYYDSRYEGFVYWGQGTVVTVSA VL: QIVLTQSPAIMSASPGEEVTMTCSASSSVSYMHWYQQKSGTSPKRWIYDTSKLASGVSGRFSGSGSGTSYSLTISSMEAEDAATYYCQQWSSNPPITFGAGTKLELK
binds			MTK-222 (antibody, human IgG1, V domains shown) VH: QVQLQQSGADLMKPGASVKLSCKATGYTFTGYWIEWVKQRPGHGLEWIGEILTGSGSSNYNEKFKGKATFTADSSSNTAFMQLSSLTTEDSAIYYCAGSYYSNSWFPYWGQGSLVTVSA VL: DIVLTQSPVSLAVSLGQRATISCRASESVDSYGSSFMHWYQQKPGQPPKLLIYRASSLESGIPARFSGSGSRTDFTLTINPVETDDVATYYCQQSNEDPRTFGGGTKLEIK
binds			MTK-219 (antibody, human IgG1, V domains shown) VH: QVQLQQSGADLMKPGASVKLSCKATGNTFTGYWIEWVKQRPGHGLEWIGEILTGSGSTNYNERFKGKATFTADTSSNTAYMQLSSLTTEDSAIYYCAGSYFTNSWFPYWGQGSLVTVSA VL: DIVLTQSPASLAVSLGQRATISCRASESVDSYGNSFMHWYQQKPGQPPKLLIYRAYTLESGIPARFSGSGSRTDFTLTINPVEADDVATYYCQQSNEDPRTFGGGTKLEIK
binds			MTK-210 (antibody, human IgG1, V domains shown) VH: QVQLQQSGPELVKPGASVKISCKASDYEFSRSWMNWVKQRPGKGLEWIGRIYPGDGDTNYNGKFKGKATLTADKSSNTAYMQLNSLTSEDSAVYFCARKGGYYYSISNYFDYWGQGTTLTVSS VL: QIVLTQSPAIMSASPGVKVTMTCSASSSVSYMHWYQQKPGSSPRLLIYDTSNLASGVPVRFSGSGSGTSYSLTISRMEAEDAATYYCQQWSSYPPYTFGGGTKLEIK
	binds		MTK-204 (antibody, human IgG1, V domains shown) VH: EVQLVESGGGLVKPGGSLKLSCAASGFTFSDYGMHWVRQAPEKGLEWVAYISSGTSTIYYEDTVKGRFTISRDNAKNTLFLQMTSLRSEDTAMYYCARGGLLFDYWGQGTTLTVSS VL: NIMMTQSPSSLAVSAGEKVTMSCKSSQSVLYSSNQKNYLAWYQQKPGQSPKLLIQWASTRESGVPDRFTGSGSETDFTLTIRSVQAEDLAVYYCHQYFSSWTFGGGTKLEIK
